Source: the supplement of paper PMC10849652
The list shows a part of the results.

Sequences of proteins named here, by UniProt entry; tags and fusion partners are left off. A change or cut given only in a name is not applied to a line headed by its entry.
UniProt Q6ZSJ8: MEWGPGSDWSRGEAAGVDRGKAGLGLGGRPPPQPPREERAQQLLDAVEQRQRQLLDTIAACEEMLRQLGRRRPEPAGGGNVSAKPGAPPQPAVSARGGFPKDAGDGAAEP
UniProt Q96KE9: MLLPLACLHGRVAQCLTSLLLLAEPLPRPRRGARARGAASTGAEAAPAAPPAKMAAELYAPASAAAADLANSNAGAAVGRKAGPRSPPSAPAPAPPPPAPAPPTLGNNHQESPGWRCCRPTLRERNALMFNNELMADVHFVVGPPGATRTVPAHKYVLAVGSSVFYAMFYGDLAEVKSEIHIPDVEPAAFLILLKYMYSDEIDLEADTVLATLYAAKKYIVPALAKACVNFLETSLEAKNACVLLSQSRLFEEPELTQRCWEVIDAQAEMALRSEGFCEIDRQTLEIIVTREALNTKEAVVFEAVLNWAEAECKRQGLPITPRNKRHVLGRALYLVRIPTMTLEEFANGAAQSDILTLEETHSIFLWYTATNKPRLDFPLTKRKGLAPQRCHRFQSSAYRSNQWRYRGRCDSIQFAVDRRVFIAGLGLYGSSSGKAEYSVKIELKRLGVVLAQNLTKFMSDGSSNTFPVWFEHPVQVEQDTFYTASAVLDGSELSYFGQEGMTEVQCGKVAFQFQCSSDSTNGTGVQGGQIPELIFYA
UniProt P35219: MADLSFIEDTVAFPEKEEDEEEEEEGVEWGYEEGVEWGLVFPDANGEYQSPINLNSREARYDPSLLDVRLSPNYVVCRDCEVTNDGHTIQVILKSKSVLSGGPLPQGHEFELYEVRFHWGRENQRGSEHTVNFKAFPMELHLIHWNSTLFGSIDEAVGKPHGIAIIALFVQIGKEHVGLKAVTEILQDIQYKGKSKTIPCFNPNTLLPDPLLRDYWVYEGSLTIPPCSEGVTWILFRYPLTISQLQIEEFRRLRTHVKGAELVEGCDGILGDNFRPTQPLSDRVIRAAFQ
UniProt Q13555: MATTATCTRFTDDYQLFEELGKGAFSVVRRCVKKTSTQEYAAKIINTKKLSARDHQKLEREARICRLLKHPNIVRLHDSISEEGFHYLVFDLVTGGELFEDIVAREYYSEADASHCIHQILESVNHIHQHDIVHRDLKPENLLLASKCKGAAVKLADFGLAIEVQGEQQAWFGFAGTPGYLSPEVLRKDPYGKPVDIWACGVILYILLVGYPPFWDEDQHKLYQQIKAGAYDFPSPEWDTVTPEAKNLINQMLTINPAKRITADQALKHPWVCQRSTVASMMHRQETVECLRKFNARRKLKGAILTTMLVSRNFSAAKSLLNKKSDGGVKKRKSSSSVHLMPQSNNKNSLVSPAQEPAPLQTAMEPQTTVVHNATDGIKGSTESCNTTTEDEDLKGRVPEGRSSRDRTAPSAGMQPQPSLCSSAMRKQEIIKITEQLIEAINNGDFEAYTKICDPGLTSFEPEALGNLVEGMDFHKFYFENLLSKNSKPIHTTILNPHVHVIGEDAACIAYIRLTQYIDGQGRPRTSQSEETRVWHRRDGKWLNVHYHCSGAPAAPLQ
UniProt Q5T5Y3: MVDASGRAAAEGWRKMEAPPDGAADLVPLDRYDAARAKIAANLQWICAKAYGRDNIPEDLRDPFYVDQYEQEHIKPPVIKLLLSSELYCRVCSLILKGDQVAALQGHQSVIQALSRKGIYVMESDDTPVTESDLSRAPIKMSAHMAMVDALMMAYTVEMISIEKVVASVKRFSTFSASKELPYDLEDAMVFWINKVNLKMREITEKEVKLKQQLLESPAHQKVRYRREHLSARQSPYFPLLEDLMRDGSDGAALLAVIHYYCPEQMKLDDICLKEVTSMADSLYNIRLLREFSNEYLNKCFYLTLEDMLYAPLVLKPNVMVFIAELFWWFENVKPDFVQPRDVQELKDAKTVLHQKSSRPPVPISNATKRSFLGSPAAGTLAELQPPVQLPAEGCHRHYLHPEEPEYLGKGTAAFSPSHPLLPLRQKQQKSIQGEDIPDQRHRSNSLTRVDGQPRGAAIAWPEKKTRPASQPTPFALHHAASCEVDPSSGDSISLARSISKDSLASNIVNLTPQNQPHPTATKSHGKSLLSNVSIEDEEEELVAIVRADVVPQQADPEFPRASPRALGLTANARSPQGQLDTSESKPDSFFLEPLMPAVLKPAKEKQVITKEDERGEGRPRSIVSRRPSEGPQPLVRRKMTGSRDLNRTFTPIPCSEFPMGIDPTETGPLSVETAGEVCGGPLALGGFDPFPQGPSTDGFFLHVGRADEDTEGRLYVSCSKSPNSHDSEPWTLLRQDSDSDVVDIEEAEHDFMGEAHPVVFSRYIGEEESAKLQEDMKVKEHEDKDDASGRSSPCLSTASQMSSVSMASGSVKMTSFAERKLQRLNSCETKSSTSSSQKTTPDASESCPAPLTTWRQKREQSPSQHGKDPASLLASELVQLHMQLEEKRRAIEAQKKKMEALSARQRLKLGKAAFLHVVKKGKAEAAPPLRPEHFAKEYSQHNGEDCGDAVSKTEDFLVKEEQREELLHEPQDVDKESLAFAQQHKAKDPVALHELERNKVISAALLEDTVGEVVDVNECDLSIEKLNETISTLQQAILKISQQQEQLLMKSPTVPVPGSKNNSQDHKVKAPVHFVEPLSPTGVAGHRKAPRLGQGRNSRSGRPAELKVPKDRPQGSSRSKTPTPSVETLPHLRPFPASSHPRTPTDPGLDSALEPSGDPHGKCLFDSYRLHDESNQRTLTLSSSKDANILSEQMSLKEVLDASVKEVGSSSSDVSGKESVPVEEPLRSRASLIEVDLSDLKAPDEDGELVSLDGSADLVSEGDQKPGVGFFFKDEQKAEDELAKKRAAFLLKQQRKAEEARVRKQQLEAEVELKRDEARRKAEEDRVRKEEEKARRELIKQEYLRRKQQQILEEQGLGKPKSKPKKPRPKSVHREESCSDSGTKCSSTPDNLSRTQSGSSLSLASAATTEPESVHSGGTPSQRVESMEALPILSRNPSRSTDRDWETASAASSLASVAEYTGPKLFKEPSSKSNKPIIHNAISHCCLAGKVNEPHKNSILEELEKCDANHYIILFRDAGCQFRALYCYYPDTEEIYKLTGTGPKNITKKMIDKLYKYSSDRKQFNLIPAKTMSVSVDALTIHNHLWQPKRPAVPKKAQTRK
UniProt Q96GQ5: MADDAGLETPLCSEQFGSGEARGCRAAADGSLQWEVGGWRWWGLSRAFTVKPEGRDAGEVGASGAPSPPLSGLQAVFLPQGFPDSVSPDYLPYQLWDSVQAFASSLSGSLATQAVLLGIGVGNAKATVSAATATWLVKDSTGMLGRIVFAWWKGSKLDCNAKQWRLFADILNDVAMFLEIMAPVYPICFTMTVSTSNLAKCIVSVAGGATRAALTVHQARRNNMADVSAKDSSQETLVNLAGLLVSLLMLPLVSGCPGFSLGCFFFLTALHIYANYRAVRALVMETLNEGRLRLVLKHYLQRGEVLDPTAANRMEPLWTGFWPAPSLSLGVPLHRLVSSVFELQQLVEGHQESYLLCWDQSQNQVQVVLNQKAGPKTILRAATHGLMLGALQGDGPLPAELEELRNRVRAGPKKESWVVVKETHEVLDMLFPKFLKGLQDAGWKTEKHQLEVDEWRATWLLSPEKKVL
UniProt Q9H3H3: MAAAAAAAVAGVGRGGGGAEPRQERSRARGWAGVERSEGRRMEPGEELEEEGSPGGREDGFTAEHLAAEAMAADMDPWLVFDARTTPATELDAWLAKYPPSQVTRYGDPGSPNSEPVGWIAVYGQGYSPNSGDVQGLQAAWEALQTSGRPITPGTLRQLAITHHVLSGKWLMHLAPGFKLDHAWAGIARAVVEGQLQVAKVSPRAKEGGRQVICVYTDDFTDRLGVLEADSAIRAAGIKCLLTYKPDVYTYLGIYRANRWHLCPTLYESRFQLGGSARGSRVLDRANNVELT
UniProt Q9NS00: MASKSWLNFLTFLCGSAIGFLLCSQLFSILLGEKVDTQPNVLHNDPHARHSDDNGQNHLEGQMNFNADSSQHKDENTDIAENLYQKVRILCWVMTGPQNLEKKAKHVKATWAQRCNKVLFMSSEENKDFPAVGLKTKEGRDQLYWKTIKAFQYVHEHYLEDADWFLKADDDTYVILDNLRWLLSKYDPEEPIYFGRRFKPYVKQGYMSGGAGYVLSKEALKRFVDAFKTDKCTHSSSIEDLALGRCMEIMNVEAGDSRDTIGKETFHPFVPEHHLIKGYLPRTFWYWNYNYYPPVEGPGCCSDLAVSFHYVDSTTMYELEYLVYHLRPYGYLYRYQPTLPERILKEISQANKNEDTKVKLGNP
UniProt O14981: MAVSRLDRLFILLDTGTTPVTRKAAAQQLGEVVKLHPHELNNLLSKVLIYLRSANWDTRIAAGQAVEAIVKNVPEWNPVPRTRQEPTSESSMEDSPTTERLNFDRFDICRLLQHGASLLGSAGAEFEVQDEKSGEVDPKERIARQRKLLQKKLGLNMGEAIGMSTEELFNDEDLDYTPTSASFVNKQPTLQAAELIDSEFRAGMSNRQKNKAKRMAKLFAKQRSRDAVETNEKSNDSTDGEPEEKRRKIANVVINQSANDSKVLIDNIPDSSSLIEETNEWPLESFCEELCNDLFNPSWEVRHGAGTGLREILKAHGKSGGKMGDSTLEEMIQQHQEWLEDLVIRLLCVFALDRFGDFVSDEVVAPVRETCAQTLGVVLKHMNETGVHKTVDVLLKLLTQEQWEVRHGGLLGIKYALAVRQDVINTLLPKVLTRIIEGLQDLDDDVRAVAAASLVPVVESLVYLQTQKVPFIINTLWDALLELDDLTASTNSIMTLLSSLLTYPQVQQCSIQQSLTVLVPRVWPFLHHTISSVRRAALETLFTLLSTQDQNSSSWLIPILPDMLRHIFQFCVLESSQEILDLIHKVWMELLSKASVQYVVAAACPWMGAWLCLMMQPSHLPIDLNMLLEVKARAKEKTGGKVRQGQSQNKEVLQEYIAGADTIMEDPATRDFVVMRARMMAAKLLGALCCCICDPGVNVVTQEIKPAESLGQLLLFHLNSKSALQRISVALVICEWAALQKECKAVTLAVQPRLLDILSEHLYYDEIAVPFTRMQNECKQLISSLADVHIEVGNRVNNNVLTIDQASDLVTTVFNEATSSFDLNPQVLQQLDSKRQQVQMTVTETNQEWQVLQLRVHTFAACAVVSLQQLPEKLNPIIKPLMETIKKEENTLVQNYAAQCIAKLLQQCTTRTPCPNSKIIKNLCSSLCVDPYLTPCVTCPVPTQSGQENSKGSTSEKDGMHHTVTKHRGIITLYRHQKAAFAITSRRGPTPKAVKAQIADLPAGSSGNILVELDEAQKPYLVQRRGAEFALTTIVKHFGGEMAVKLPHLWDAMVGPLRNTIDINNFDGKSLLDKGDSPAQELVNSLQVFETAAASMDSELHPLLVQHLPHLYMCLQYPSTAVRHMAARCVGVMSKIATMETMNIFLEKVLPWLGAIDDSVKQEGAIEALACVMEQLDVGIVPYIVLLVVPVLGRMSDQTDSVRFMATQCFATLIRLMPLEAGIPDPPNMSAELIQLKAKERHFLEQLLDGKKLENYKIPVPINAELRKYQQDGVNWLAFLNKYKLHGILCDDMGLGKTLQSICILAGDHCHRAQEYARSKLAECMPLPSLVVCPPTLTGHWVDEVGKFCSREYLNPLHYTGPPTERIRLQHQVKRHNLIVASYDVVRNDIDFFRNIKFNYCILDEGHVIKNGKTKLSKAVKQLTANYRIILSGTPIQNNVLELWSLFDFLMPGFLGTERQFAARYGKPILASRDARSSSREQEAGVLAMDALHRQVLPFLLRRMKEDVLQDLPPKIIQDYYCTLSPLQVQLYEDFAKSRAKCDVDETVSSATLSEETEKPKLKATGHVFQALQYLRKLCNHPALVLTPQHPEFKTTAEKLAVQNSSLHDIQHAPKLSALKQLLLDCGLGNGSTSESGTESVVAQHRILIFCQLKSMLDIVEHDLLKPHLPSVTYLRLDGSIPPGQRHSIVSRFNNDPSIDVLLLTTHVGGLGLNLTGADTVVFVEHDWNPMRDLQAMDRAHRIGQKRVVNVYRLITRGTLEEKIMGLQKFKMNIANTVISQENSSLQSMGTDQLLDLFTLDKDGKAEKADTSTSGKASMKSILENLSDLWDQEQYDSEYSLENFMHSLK
UniProt Q9H8G2: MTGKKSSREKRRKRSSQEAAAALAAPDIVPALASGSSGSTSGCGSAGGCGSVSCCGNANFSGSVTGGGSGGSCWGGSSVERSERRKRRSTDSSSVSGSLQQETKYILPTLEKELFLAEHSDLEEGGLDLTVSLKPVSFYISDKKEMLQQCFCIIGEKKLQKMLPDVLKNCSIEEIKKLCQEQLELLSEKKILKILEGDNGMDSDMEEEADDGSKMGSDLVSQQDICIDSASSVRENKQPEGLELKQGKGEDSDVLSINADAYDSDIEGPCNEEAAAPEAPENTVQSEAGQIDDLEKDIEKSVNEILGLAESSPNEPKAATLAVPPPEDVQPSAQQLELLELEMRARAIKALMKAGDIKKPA
UniProt Q8TCD1: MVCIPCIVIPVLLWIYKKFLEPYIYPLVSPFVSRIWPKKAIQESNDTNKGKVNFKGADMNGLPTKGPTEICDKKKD

Tests used:
Experiment in all cases: log2 fold change, soluble protein after heating vs DMSO (PISA); higher = thermal stabilisation; K562 cells, 10 uM, 30 min; active = over 0.2 and 3.5 SD of the protein, either way, in both replicates (recomputed)
[1] = compound: CC[C@@H]1C(=O)N(C)c2cnc(Nc3ccc(C(=O)NC4CCN(C)CC4)cc3OC)nc2N1C1CCCC1
In short: (§1)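 K562 cells at 2×10^6 cells/mL were treated with 10 μM compound for 30 min. Aliquots were heated for 3 min across 48°C-58°C, pooled, and extracted in PBS with 0.5% NP-40 at 4°C; soluble protein was the supernatant after 21,000xg for 90 min. Soluble protein was quantified by TMTpro 16plex LC-MS/MS with channel sums equalised, and reported as log2 fold change in thermal stability against DMSO controls, with values from duplicates.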

volasertib = compound: CC[C@@H]1C(=O)N(C)c2cnc(Nc3ccc(C(=O)N[C@H]4CC[C@H](N5CCN(CC6CC6)CC5)CC4)cc3OC)nc2N1C(C)C [volasertib]
In short: as §1

[2] = compound: CC[C@H](C)N1C=C(C2=C(C=C(C=C21)C3=CN=C(C=C3)N4CCNCC4)C(=O)NCC5=C(C=C(NC5=O)C)C)C
In short: as §1

epoxomicin = compound: CC[C@H](C)[C@@H](C(=O)N[C@@H]([C@@H](C)O)C(=O)N[C@@H](CC(C)C)C(=O)[C@]1(CO1)C)NC(=O)[C@H]([C@@H](C)CC)N(C)C(=O)C [epoxomicin]
In short: as §1

[3] = compound: CCn1c(C(=O)N(C2CC2)C2CC2)cc2c3c(ncn3C)c(Nc3cc(C)n(C)n3)nc21
In short: as §1

[4] = compound: CCn1cc(-c2ccnc3[nH]c(-c4cccc(CN(C)C)c4)cc23)c(-c2ccc(NC(=O)N(C)C)cc2)n1
In short: as §1

[5] = compound: CN(C)CC(=O)Nc1ccc2[nH]c(=O)c3ccccc3c2c1
In short: as §1

rosiglitazone = compound: CN(CCOC1=CC=C(C=C1)C[C@H]2C(=O)NC(=O)S2)C3=CC=CC=N3 (racemic) [rosiglitazone]
In short: as §1

[6] = compound: CN1C2=C(C3=C1C(=O)N(N=C3)CC4=CC(=CC=C4)N)SC(=C2)S(=O)C
In short: as §1

[7] = compound: CN1CCC(CNc2ccc3ncc(-c4cccc(OC(F)(F)F)c4)n3n2)CC1
In short: as §1

| Target | log2 fold change [1] | log2 fold change (volasertib) | log2 fold change [2] | log2 fold change (epoxomicin) | log2 fold change [3] | log2 fold change [4] | log2 fold change [5] | log2 fold change (rosiglitazone) | log2 fold change [6] | log2 fold change [7] |
| --- | --- | --- | --- | --- | --- | --- | --- | --- | --- | --- |
| C12orf29 (UniProt Q8N999) | inactive: -0.011 | inactive: -0.034 | inactive: -0.01 | inactive: -0.005 | inactive: -0.028 | inactive: -0.02 | inactive: -0.045 | inactive: 0.008 | inactive: 0.03 | inactive: -0.025 |
| CAPRIN1 (UniProt Q14444) | inactive: 0.204 | inactive: 0.261 | inactive: -0.005 | inactive: -0.203 | inactive: 0.037 | inactive: 0.109 | inactive: -0.096 | inactive: -0.114 | inactive: 0.169 | inactive: 0.145 |
| CAMLG (UniProt P49069) | inactive: -0.082 | inactive: 0.055 | inactive: -0.014 | inactive: -0.007 | inactive: -0.082 | inactive: -0.017 | inactive: -0.007 | inactive: 0.012 | inactive: -0.016 | inactive: -0.02 |
| CAPN2 (UniProt P17655) | inactive: 0.018 | inactive: 0.048 | inactive: 0.014 | inactive: 0.032 | inactive: -0.002 | inactive: -0.074 | inactive: 0 | inactive: -0.014 | inactive: -0.052 | inactive: -0.087 |
| C1orf52 (UniProt Q8N6N3) | inactive: 0.006 | inactive: 0.077 | inactive: -0.055 | inactive: -0.007 | inactive: 0.023 | inactive: -0.034 | inactive: -0.005 | inactive: -0.002 | inactive: -0.047 | inactive: 0.005 |
| C1orf122 (UniProt Q6ZSJ8) | inactive: 0.108 | inactive: 0.025 | inactive: -0.004 | inactive: 0.074 | inactive: -0.057 | inactive: 0.148 | inactive: -0.007 | inactive: 0.058 | inactive: -0.061 | inactive: -0.036 |
| BTBD6 (UniProt Q96KE9) | inactive: 0.017 | inactive: 0.001 | inactive: -0.033 | inactive: -0.059 |  | inactive: -0.356 | inactive: 0.066 |  | inactive: -0.112 | inactive: -0.021 |
| CA8 (UniProt P35219) | inactive: -0.055 | active: -0.329 | inactive: 0.038 | inactive: 0.01 |  | inactive: -0.093 | inactive: -0.002 |  | inactive: -0.099 | inactive: -0.127 |
| CAMK2G isoform 6 (UniProt Q13555) | inactive: 0.095 | inactive: -0.15 | inactive: 0.072 | inactive: -0.028 |  | inactive: 0.042 | inactive: 0.035 |  | inactive: 0.064 | inactive: -0.319 |
| BZW2 (UniProt Q9Y6E2) | inactive: -0.193 | active: -0.367 | inactive: 0.042 | inactive: 0.043 |  | inactive: -0.016 | inactive: 0.02 |  | inactive: -0.037 | active: -0.298 |
| CAMSAP1 isoform 3 (UniProt Q5T5Y3) | inactive: -0.044 | active: -0.576 | inactive: 0.184 | inactive: 0.068 |  | inactive: -0.003 | inactive: -0.232 |  | inactive: 0.03 | inactive: -0.254 |
| C5orf51 (UniProt A6NDU8) | inactive: -0.231 | inactive: -0.194 | inactive: 0.088 | inactive: -0.012 | inactive: -0.003 | inactive: 0.035 | inactive: 0.085 | inactive: 0.078 | inactive: -0.017 | inactive: -0.284 |
| BST2 (UniProt Q10589) | inactive: 0.091 | inactive: 0.206 | inactive: -0.062 | inactive: -0.025 |  | inactive: 0.045 | inactive: -0.008 |  | inactive: 0 | active: 0.223 |
| C16orf58 (UniProt Q96GQ5) | inactive: -0.055 | inactive: -0.013 | inactive: -0.005 | inactive: 0.029 |  | inactive: -0.018 | inactive: 0.006 |  | inactive: -0.037 | inactive: -0.086 |
| CALCOCO2 isoform 4 (UniProt Q13137) | active: -0.634 | active: -0.471 | inactive: -0.024 | inactive: 0.035 |  | inactive: 0.059 | inactive: 0.01 |  | inactive: 0.055 | inactive: -0.149 |
| C19orf53 (UniProt Q9UNZ5) | inactive: 0.205 | inactive: 0.412 | inactive: 0.045 | inactive: -0.264 |  | inactive: 0.239 | inactive: -0.189 |  | inactive: 0.34 | inactive: 0.2 |
| C11orf68 (UniProt Q9H3H3) | inactive: -0.033 | inactive: -0.037 | inactive: -0.009 | inactive: 0.015 | inactive: 0.008 | inactive: -0.064 | inactive: 0 | inactive: 0.03 | inactive: -0.028 | inactive: -0.115 |
| CALB1 (UniProt P05937) | inactive: -0.123 | inactive: -0.092 | inactive: -0.007 | inactive: 0.043 |  | inactive: 0.05 | inactive: 0.016 |  | inactive: -0.039 | active: -0.282 |
| CALM2 (UniProt P0DP24) | inactive: 0.024 | inactive: 0.184 | inactive: 0.004 | inactive: 0.036 | inactive: 0.023 | inactive: -0.044 | inactive: -0.022 | inactive: -0.067 | inactive: -0.054 | inactive: 0.036 |
| C1GALT1 (UniProt Q9NS00) | inactive: -0.007 | inactive: -0.098 | inactive: 0.004 | inactive: -0.045 | inactive: -0.039 | inactive: -0.062 | inactive: 0.039 | inactive: 0.053 | inactive: -0.015 | inactive: -0.037 |
| BZW1 isoform 3 (UniProt Q7L1Q6) | inactive: -0.273 | active: -0.82 | inactive: 0.114 | inactive: 0.019 |  | inactive: -0.041 | inactive: 0.104 |  | inactive: 0.068 | inactive: -0.33 |
| CAPN7 (UniProt Q9Y6W3) | inactive: 0.023 | inactive: 0.104 | inactive: 0.078 | inactive: 0.012 | inactive: -0.043 | inactive: -0.049 | inactive: 0.009 | inactive: 0.062 | inactive: -0.011 | inactive: -0.062 |
| BTAF1 (UniProt O14981) | inactive: -0.087 | active: -0.265 | inactive: 0.061 | inactive: 0.086 |  | inactive: -0.07 | inactive: 0.027 |  | inactive: -0.055 | inactive: -0.09 |
| CAAP1 (UniProt Q9H8G2) | inactive: 0.056 | inactive: -0.039 | inactive: 0.063 | inactive: -0.135 | inactive: 0.026 |  | inactive: 0.063 | inactive: 0.047 | inactive: 0.067 |  |
| C9orf64 (UniProt Q5T6V5) | inactive: -0.066 | inactive: -0.309 | inactive: 0.103 | inactive: -0.004 |  | inactive: -0.149 | inactive: 0.075 |  | inactive: -0.007 | active: -0.396 |
| C18orf32 (UniProt Q8TCD1) | inactive: 0.091 | inactive: 0.038 | inactive: -0.068 | inactive: 0.131 | inactive: 0.04 | inactive: -0.101 | inactive: 0.079 | inactive: 0.066 |  | inactive: 0.097 |
